Measurements reported in PubChem BioAssay AID504764 (Drosophila RNAi Screening Center, 2011)

- Assay: 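Knock-downs that raise or lower a Notch target reporter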 (primary screen)
- System: Drosophila Kc167 cells
- Reagents: long dsRNA against Drosophila genes
- Timing: about 5 days (4 days dsRNA, then 24 h after transfection)
- Conditions: transfection of constitutively active membrane-tethered Notch lacking the extracellular domain, read 24 h later
- Read-out: 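Light from a Notch-responsive E(spl)m3 luciferase reporter under active Notch, with control-promoter and no-Notch reporter wells to normalise; raw counts from paired wells a and b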
- Reading the numbers: induced reporter light, run 1, well a and induced reporter light, run 1, well b: higher = more light from the Notch target reporter with active Notch; control promoter light, run 1, well a and control promoter light, run 1, well b: higher = more light from the viral control promoter (cell number, transfection, viability); uninduced reporter light, run 1, well a: higher = more light from the Notch target reporter without active Notch
- Call rule: 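Hit if the duplicate-averaged log2 ratio of induced to control-promoter light gives a plate-wise z beyond ±2, or induced to uninduced beyond ±1.8; weak-control or discordant-duplicate wells dropped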
- Meaning of the calls: active = modifier hit (raised or lowered Notch signal); inactive = not a hit
The screen tested about 22,000 reagents; shown is a random part of those with a known target gene and a result. Of all reagents, 403 (1.9%) got an active call. 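Unnormalised raw counts per well; ratio z-scores behind the hit calls and whether each hit raises or lowers signal are not deposited.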 No sequences are given here. The record does not give: the amount of reagent.

What is on record for e(y)2 [DRSC19640]?
induced reporter light, run 1, well a: 69920; induced reporter light, run 1, well b: 80895; control promoter light, run 1, well a: 1.27e5; control promoter light, run 1, well b: 1.21e5; uninduced reporter light, run 1, well a: 5795; Outcome: inactive

How did the screen score CG42566 [DRSC03949]?
induced reporter light, run 1, well a: 68180; induced reporter light, run 1, well b: 62870; control promoter light, run 1, well a: 79585; control promoter light, run 1, well b: 75655; uninduced reporter light, run 1, well a: 8070; Outcome: inactive

For CG7264 [DRSC10793], what was measured?
induced reporter light, run 1, well a: 1.51e5; induced reporter light, run 1, well b: 96295; control promoter light, run 1, well a: 1.82e5; control promoter light, run 1, well b: 1.31e5; uninduced reporter light, run 1, well a: 6560; Outcome: inactive

For CG15047 [DRSC19623], how do the results read?
induced reporter light, run 1, well a: 1.04e5; induced reporter light, run 1, well b: 91760; control promoter light, run 1, well a: 1.11e5; control promoter light, run 1, well b: 1.16e5; uninduced reporter light, run 1, well a: 12195; Outcome: inactive

With Mer [DRSC20259], what does the deposit list?
induced reporter light, run 1, well a: 93160; induced reporter light, run 1, well b: 1.21e5; control promoter light, run 1, well a: 1.06e5; control promoter light, run 1, well b: 59480; uninduced reporter light, run 1, well a: 9050; Outcome: inactive

For Kah [DRSC07887], how do the results read?
induced reporter light, run 1, well a: 1.94e5; induced reporter light, run 1, well b: 2.19e5; control promoter light, run 1, well a: 2.00e5; control promoter light, run 1, well b: 2.03e5; uninduced reporter light, run 1, well a: 16320; Outcome: inactive

For Kah [DRSC08515], how do the results read?
induced reporter light, run 1, well a: 1.21e5; induced reporter light, run 1, well b: 1.15e5; control promoter light, run 1, well a: 1.43e5; control promoter light, run 1, well b: 1.42e5; uninduced reporter light, run 1, well a: 5760; Outcome: inactive

With Nmdmc [DRSC16760], what does the deposit list?
induced reporter light, run 1, well a: 1.52e5; induced reporter light, run 1, well b: 1.35e5; control promoter light, run 1, well a: 88795; control promoter light, run 1, well b: 88250; uninduced reporter light, run 1, well a: 11795; Outcome: inactive

What is on record for CG3407 [DRSC00603]?
induced reporter light, run 1, well a: 1.45e5; induced reporter light, run 1, well b: 1.74e5; control promoter light, run 1, well a: 1.37e5; control promoter light, run 1, well b: 1.68e5; uninduced reporter light, run 1, well a: 16280; Outcome: inactive

How did the screen score CG11756 [DRSC19424]?
induced reporter light, run 1, well a: 1.11e5; induced reporter light, run 1, well b: 1.08e5; control promoter light, run 1, well a: 1.93e5; control promoter light, run 1, well b: 2.41e5; uninduced reporter light, run 1, well a: 8525; Outcome: inactive

For NiPp1 [DRSC07307], how do the results read?
induced reporter light, run 1, well a: 57485; induced reporter light, run 1, well b: 69685; control promoter light, run 1, well a: 88495; control promoter light, run 1, well b: 83610; uninduced reporter light, run 1, well a: 4025; Outcome: inactive

Which result is listed for MtnA [DRSC21588]?
Outcome: inactive

How did the screen score PpD3 [DRSC16796]?
induced reporter light, run 1, well a: 90215; induced reporter light, run 1, well b: 1.04e5; control promoter light, run 1, well a: 90750; control promoter light, run 1, well b: 54030; uninduced reporter light, run 1, well a: 6440; Outcome: inactive

With mRpS30 [DRSC20107], how do the results read?
induced reporter light, run 1, well a: 82375; induced reporter light, run 1, well b: 1.11e5; control promoter light, run 1, well a: 1.07e5; control promoter light, run 1, well b: 1.14e5; uninduced reporter light, run 1, well a: 5740; Outcome: inactive

What is on record for Gyc88E [DRSC15547]?
induced reporter light, run 1, well a: 1.74e5; induced reporter light, run 1, well b: 1.86e5; control promoter light, run 1, well a: 1.69e5; control promoter light, run 1, well b: 1.83e5; uninduced reporter light, run 1, well a: 18250; Outcome: inactive

Which result is listed for Mos [DRSC07258]?
induced reporter light, run 1, well a: 1.06e5; induced reporter light, run 1, well b: 80550; control promoter light, run 1, well a: 1.50e5; control promoter light, run 1, well b: 1.26e5; uninduced reporter light, run 1, well a: 8565; Outcome: inactive

What did the screen give for Rpt4 [DRSC18713]?
induced reporter light, run 1, well a: 45945; induced reporter light, run 1, well b: 48405; control promoter light, run 1, well a: 52060; control promoter light, run 1, well b: 58295; uninduced reporter light, run 1, well a: 3420; Outcome: active

What is on record for Cda5 [DRSC00003]?
induced reporter light, run 1, well a: 1.32e5; induced reporter light, run 1, well b: 1.18e5; control promoter light, run 1, well a: 1.36e5; control promoter light, run 1, well b: 1.53e5; uninduced reporter light, run 1, well a: 9360; Outcome: inactive

How did the screen score Cda5 [DRSC00529]?
induced reporter light, run 1, well a: 1.28e5; induced reporter light, run 1, well b: 1.16e5; control promoter light, run 1, well a: 1.10e5; control promoter light, run 1, well b: 75740; uninduced reporter light, run 1, well a: 10000; Outcome: inactive

How did the screen score Cda5 [DRSC00532]?
induced reporter light, run 1, well a: 1.20e5; induced reporter light, run 1, well b: 97945; control promoter light, run 1, well a: 1.01e5; control promoter light, run 1, well b: 69635; uninduced reporter light, run 1, well a: 8530; Outcome: inactive

Entries listed so far called active, once more:
Rpt4 [DRSC18713]: induced reporter light, run 1, well a = 45945; induced reporter light, run 1, well b = 48405; control promoter light, run 1, well a = 52060; control promoter light, run 1, well b = 58295; uninduced reporter light, run 1, well a = 3420; Outcome = active
